Drawing on PMC8738735, this text covers binding for three molecules.

Protein sequences, listed by entry. Tags and fused reporters are not part of them.
UniProt P63158: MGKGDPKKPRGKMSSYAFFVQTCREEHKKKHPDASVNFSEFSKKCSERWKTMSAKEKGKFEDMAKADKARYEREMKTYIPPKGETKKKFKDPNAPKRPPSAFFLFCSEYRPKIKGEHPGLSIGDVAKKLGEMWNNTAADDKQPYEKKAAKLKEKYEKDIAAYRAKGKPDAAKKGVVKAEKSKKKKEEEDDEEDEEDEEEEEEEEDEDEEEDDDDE
UniProt P45481: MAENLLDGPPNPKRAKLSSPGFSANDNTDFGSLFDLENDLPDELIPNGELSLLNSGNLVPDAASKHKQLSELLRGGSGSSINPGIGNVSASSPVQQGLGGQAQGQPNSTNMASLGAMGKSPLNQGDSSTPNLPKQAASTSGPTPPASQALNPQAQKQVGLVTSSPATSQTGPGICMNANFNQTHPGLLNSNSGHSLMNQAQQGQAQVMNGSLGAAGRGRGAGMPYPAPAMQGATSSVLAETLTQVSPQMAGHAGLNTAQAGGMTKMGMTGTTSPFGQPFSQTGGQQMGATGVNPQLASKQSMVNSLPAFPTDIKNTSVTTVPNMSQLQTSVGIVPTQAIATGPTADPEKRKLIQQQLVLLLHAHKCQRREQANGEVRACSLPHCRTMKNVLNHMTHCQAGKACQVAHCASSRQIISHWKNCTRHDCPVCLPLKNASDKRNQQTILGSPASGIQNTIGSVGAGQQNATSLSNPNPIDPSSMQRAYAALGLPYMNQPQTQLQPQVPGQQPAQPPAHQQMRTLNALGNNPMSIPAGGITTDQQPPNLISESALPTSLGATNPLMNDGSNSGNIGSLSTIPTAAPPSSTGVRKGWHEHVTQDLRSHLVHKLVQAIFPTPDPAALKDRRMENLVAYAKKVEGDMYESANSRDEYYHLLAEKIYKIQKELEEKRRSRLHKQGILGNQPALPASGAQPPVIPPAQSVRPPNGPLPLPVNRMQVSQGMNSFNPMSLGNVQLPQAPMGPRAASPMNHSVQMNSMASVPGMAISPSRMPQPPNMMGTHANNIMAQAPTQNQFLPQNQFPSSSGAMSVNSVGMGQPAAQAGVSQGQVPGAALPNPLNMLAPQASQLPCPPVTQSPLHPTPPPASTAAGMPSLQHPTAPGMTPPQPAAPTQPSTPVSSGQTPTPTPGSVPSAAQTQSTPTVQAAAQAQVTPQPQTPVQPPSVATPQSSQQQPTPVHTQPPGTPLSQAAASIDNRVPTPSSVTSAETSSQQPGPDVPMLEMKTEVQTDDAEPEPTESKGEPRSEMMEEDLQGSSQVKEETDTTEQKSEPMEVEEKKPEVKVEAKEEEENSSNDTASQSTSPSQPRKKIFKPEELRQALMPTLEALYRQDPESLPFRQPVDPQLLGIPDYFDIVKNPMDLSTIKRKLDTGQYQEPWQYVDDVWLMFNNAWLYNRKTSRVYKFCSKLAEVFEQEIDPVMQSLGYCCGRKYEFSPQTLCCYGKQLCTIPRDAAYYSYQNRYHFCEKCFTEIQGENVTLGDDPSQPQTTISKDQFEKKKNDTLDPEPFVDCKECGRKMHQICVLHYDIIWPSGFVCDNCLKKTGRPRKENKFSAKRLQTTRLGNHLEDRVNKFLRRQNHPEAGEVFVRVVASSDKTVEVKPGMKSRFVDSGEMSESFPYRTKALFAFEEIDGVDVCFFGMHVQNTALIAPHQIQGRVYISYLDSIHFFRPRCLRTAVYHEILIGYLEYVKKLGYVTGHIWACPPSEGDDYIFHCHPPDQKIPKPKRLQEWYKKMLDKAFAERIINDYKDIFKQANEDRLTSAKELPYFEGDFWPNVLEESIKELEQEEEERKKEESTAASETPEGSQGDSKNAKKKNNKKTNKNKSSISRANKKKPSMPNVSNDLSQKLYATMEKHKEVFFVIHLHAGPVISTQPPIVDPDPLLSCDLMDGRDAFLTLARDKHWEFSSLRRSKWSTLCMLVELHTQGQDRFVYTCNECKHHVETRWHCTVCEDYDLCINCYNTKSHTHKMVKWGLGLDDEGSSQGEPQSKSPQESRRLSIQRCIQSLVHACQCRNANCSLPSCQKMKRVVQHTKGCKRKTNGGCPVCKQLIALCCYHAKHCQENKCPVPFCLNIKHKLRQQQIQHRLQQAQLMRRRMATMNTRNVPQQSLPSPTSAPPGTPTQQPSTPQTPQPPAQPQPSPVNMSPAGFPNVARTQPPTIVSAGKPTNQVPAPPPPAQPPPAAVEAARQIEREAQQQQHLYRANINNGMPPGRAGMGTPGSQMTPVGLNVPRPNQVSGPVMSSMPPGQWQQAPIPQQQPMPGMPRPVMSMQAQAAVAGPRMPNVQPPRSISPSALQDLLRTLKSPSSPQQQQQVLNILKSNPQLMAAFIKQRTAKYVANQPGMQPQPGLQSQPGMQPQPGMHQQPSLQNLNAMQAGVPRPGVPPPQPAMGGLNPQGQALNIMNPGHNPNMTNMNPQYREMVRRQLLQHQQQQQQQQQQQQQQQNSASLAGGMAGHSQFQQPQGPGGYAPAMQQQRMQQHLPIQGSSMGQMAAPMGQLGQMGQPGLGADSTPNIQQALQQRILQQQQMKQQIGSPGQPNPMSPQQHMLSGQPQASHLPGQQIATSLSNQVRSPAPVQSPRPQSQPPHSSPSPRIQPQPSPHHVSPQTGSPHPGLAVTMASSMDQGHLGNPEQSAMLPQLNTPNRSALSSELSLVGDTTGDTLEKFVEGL

Like-named read-outs stand apart in the source and are kept apart here. No constants are given. Whether binding was seen depends on the method and setting. In cells and extracts the contact can be indirect. Some entries that bind do so weakly or less than the wild type.

Test [1] has as its target high mobility group box-1 (HMGB1) (mouse (endogenous in RAW 264.7)) (UniProt P63158). The test can be described thus: co-IP; about 200 µg of RAW 264.7 cell lysate protein precipitated with anti-HMGB1 antibody overnight at 4 °C, protein A/G-agarose beads, four washes with lysis buffer, immunoblot of the partner; cells treated with vehicle, lactic acid or sodium lactate (10 mM), for CD63 also with CHC (3 mM). A general note: In western blotting, separated proteins are transferred to a membrane and probed.

Test [2] shares this target. Described as above. The source holds these as a separate data set.

In the case of “CREB-binding protein (CBP) (from UniProt P45481 1-2441) (enzyme)”, the binding result in test [1] is given as “binds”.

B1: CD63 (protein, UniProt P41731 1-238)
chain: MAVEGGMKCVKFLLYVLLLAFCACAVGLIAIGVAVQVVLKQAITHETTAGSLLPVVIIAVGAFLFLVAFVGCCGACKENYCLMITFAIFLSLIMLVEVAVAIAGYVFRDQVKSEFNKSFQQQMQNYLKDNKTATILDKLQKENNCCGASNYTDWENIPGMAKDRVPDSCCINITVGCGNDFKESTIHTQGCVETIAIWLRKNILLVAAAALGIAFVEVLGIIFSCCLVKSIRSGYEVM
For B1, the binding entry in test [2] was “binds”.

B2: Lamp1 (protein, UniProt P11438 25-406)
chain: LFEVKNNGTTCIMASFSASFLTTYETANGSQIVNISLPASAEVLKNGSSCGKENVSDPSLTITFGRGYLLTLNFTKNTTRYSVQHMYFTYNLSDTEHFPNAISKEIYTMDSTTDIKADINKAYRCVSDIRVYMKNVTVVLRDATIQAYLSSGNFSKEETHCTQDGPSPTTGPPSPSPPLVPTNPTVSKYNVTGNNGTCLLASMALQLNITYLKKDNKTVTRAFNISPNDTSSGSCGINLVTLKVENKNRALELQFGMNASSSLFFLQGVRLNMTLPDALVPTFSISNHSLKALQATVGNSYKCNTEEHIFVSKMLSLNVFSVQVQAFKVDSDRFGSVEECVQDGNNMLIPIAVGGALAGLVLIVLIAYLIGRKRSHAGYQTI
Consider B2, for which the binding result in test [2] was “binds”.
